# Source: the supplement of paper PMC4604168 (melanoma cell lines)
# This is one part of the list. Repeats are few or missing, and single values can be far off.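 Cells were imaged in 1,536-well plates, and nuclei stained with an antibody against cleaved PARP were counted against all DNA-stained nuclei to give the apoptosis fraction. Screening doses were chosen to leave most cells alive, and resting and induced cleaved-PARP levels differ strongly between cell lines.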
# Test system: IPC-298
# Experiment: cleaved PARP positive nuclei fraction relative to DMSO control; melanoma cells; higher = more apoptosis
# Details: library dose: low library concentration; 72 h
row,Structure (SMILES),cleaved PARP positive nuclei fraction
1,"Cc1cc(Nc2cc(N3CCN(C)CC3)nc(Sc3ccc(NC(=O)C4CC4)cc3)n2)n[nH]1 [Tozasertib] + Cc1cc(Nc2cc(N3CCN(C)CC3)nc(/C=C/c3ccccc3)n2)n[nH]1 [ENMD2076] (first compound 0.006 µM, partner dose 0.04 µM)",90.3%
2,"O=C(Nc1cc(C(F)(F)F)cc(C(F)(F)F)c1)c1cc(Cl)ccc1O + C[C@]1(c2nc3c(C(N)=O)cccc3[nH]2)CCCN1 [Veliparib] (first compound 0.016 µM, partner dose 1.4 µM)",185%
3,"O=C(Nc1cc(C(F)(F)F)cc(C(F)(F)F)c1)c1cc(Cl)ccc1O + Nc1ncn([C@H]2C[C@H](O)[C@@H](CO)O2)c(=O)n1 [decitabine] (first compound 0.016 µM, partner dose 0.1 µM)",319%
4,"CC[C@]1(O)C[C@H]2CN(CCc3c([nH]c4ccccc34)[C@@](C(=O)OC)(c3cc4c(cc3OC)N(C=O)[C@H]3[C@@](O)(C(=O)OC)[C@H](OC(C)=O)[C@]5(CC)C=CCN6CC[C@]43[C@@H]65)C2)C1 [vincristine] + Cn1c(Nc2ccc(C(F)(F)F)cc2)nc2cc(Oc3ccnc(-c4ncc(C(F)(F)F)[nH]4)c3)ccc21 [CHIR265] (first compound 0.0001 µM, partner dose 0.08 µM)",281%
5,"Cc1cc(Nc2cc(N3CCN(C)CC3)nc(Sc3ccc(NC(=O)C4CC4)cc3)n2)n[nH]1 [Tozasertib] + N#CC[C@H](C1CCCC1)n1cc(-c2ncnc3[nH]ccc23)cn1 [ruxolitinib] (first compound 0.006 µM, partner dose 1 µM)",85.3%
6,"CC[C@]1(O)C[C@H]2CN(CCc3c([nH]c4ccccc34)[C@@](C(=O)OC)(c3cc4c(cc3OC)N(C=O)[C@H]3[C@@](O)(C(=O)OC)[C@H](OC(C)=O)[C@]5(CC)C=CCN6CC[C@]43[C@@H]65)C2)C1 [vincristine] + C=C(c1ccc(C(=O)O)cc1)c1cc2c(cc1C)C(C)(C)CCC2(C)C [Bexarotene] (first compound 0.0001 µM, partner dose 2 µM)",85%
7,"O=C(/C=C/c1cccnc1)NCCCCC1CCN(C(=O)c2ccccc2)CC1 + C#Cc1cccc(Nc2ncnc3cc(OCCOC)c(OCCOC)cc23)c1 [erlotinib] (first compound 0.01 µM, partner dose 0.8 µM)",2200%
8,"Cc1cn(-c2cc(NC(=O)c3ccc(C)c(Nc4nccc(-c5cccnc5)n4)c3)cc(C(F)(F)F)c2)cn1 [nilotinib] + CO[C@H]1C[C@@H]2CC[C@@H](C)[C@@](O)(O2)C(=O)C(=O)N2CCCC[C@H]2C(=O)O[C@H]([C@H](C)C[C@@H]2CC[C@@H](OCCO)[C@H](OC)C2)CC(=O)[C@H](C)/C=C(\C)[C@@H](O)[C@@H](OC)C(=O)[C@H](C)C[C@H](C)/C=C/C=C/C=C/1C [everolimus] (first compound 0.2 µM, partner dose 0.02 µM)",170%
9,"O=C(Nc1cc(C(F)(F)F)cc(C(F)(F)F)c1)c1cc(Cl)ccc1O + Cn1c(Nc2ccc(C(F)(F)F)cc2)nc2cc(Oc3ccnc(-c4ncc(C(F)(F)F)[nH]4)c3)ccc21 [CHIR265] (first compound 0.016 µM, partner dose 0.08 µM)",110%
10,"O=c1[nH]nc(Sc2ncc([N+](=O)[O-])s2)n1-c1ccc2c(c1)OCCO2 + OCc1c[nH]c2ccccc12 [Indole-3-carbinol] (first compound 0.2 µM, partner dose 0.8 µM)",332%
11,"O=C(/C=C/c1cccnc1)NCCCCC1CCN(C(=O)c2ccccc2)CC1 + CO[C@H]1C[C@@H]2CC[C@@H](C)[C@@](O)(O2)C(=O)C(=O)N2CCCC[C@H]2C(=O)O[C@H]([C@H](C)C[C@@H]2CC[C@@H](OCCO)[C@H](OC)C2)CC(=O)[C@H](C)/C=C(\C)[C@@H](O)[C@@H](OC)C(=O)[C@H](C)C[C@H](C)/C=C/C=C/C=C/1C [everolimus] (first compound 0.01 µM, partner dose 0.02 µM)",394%
12,"O=c1[nH]nc(Sc2ncc([N+](=O)[O-])s2)n1-c1ccc2c(c1)OCCO2 + CS(=O)(=O)CCNCc1ccc(-c2ccc3ncnc(Nc4ccc(OCc5cccc(F)c5)c(Cl)c4)c3c2)o1 [lapatinib] (first compound 0.2 µM, partner dose 0.8 µM)",91.3%

# Look-ups from the entries so far:
# Entry of O=C(Nc1cc(C(F)(F)F)cc(C(F)(F)F)c1)c1cc(Cl)ccc1O + Nc1ncn([C@H]2C[C@H](O)[C@@H](CO)O2)c(=O)n1 [decitabine] (first compound 0.016 µM, partner dose 0.1 µM) under cleaved PARP positive nuclei fraction: 319%
# Entry of O=c1[nH]nc(Sc2ncc([N+](=O)[O-])s2)n1-c1ccc2c(c1)OCCO2 + OCc1c[nH]c2ccccc12 [Indole-3-carbinol] (first compound 0.2 µM, partner dose 0.8 µM) under cleaved PARP positive nuclei fraction: 332%
